PubChem BioAssay AID1259425 | University of Nebraska Medical Center | 2018

Assay: 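Seek colon cancer weak points whose silencing resembles KSR1 loss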 (primary screen)
Cell system: HCT116 human colon cancer cells
Reagent: siRNA pool against human genes, 50 nM siRNA
Measurement: 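After 50 nM siRNA pool, branched-DNA assay measures six marker transcripts per well, minus blank, normalised to the geometric mean of two housekeeping transcripts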
Direction: BNIP3L mRNA: higher = more BNIP3L transcript after knockdown
This is one part, drawn at random, of about 14,000 deposited reagents. Reagents against one gene are numbered here. Not all columns of the deposit are shown. No sequences are given here. The record does not give: the time to read-out.

How did the screen score LPAR2?
BNIP3L mRNA, set 1: 0.181

How did the screen score ARHGAP17?
BNIP3L mRNA, set 1: 0.0788

Which result is listed for EIF4ENIF1?
BNIP3L mRNA, set 1: 0.15

How did the screen score FAXDC2?
BNIP3L mRNA, set 1: 0.12

For GPR25, how do the results read?
BNIP3L mRNA, set 1: 0.187

For PPP2R2A, what does the deposit list?
BNIP3L mRNA, set 1: 0.137

For FGF19, what was measured?
BNIP3L mRNA, set 1: 0.0961

For CHRNA10, what does the deposit list?
BNIP3L mRNA, set 1: 0.134

With ARF5, how do the results read?
BNIP3L mRNA, set 1: 0.0948

What is on record for PRPS1L1?
BNIP3L mRNA, set 1: 0.0459

How did the screen score KLK10?
BNIP3L mRNA, set 1: 0.474

With TLE2, what was measured?
BNIP3L mRNA, set 1: 0.112

With MTA3, what does the deposit list?
BNIP3L mRNA, set 1: 0.105

What did the screen give for EBAG9?
BNIP3L mRNA, set 1: 0.132

For KAZALD1, how do the results read?
BNIP3L mRNA, set 1: 0.129

Which result is listed for ADAM2?
BNIP3L mRNA, set 1: 0.0784

What did the screen give for AKT1 #1?
BNIP3L mRNA, set 1: 0.0982

With AKT1 #2, what was measured?
BNIP3L mRNA, set 1: 0.0697

How did the screen score CREB5?
BNIP3L mRNA, set 1: 0.04

A run of entries from the list above, for reference:
AKT1 #2 | BNIP3L mRNA, set 1 = 0.0697
CREB5 | BNIP3L mRNA, set 1 = 0.04
